Residues, ends and D or L forms follow the SMILES beside them. *: point of attachment. Decanoyl = CCCCCCCCCC(=O)*; Octanoyl = CCCCCCCC(=O)*
Columns and labels:
POPG LUVs = experiment: Isothermal titration calorimetry, binding to POPG LUVs; details: ITC, 25 °C
Protocol: (§1) Large unilamellar vesicles (LUV) were obtained by extrusion of MLV liposomes through polycarbonate membrane filters with a pore diameter of 100 nm (Whatman International Ltd., Kent, UK) using a mini-extruder (Avanti Polar Lipids, Inc., Alabaster, AL, USA).
(§2) The thermodynamic parameters of the interactions of the lipopeptides with POPG and POPC liposomes were determined by isothermal titration calorimetry (ITC). Measurements were performed at 25 °C using an AutoITC microcalorimeter (MicroCal Inc., Northampton, MA, USA) with a 1.4491 mL sample and reference cells. The experiment consisted in the titration of a buffered peptide solution with a concentration of 0.05 and/or 0.07 mM with a buffered solution containing POPG or POPC LUVs with a lipid concentration of 1.3 and 1.8 mM (10.02 µL; 29 injections, 2 µL for the first injection only), as it was described previously. The result of the titration was a thermogram showing a series of peaks corresponding to the titration steps. A titration curve was obtained after integration of the peak areas. The obtained isotherms were fitted to the “one set of sites” or “two sets of sites” models available in the ORIGIN 7.0 (MicroCal Inc., Northampton, MA, USA), which made it possible to determine the enthalpy (ΔH), the binding constant (KITC) and the stoichiometry (N) of the interactions between the lipopeptide and the lipids. The following formula was used to calculate the entropy change (ΔS) and the Gibbs free energy (ΔG): ΔG=−RTln(55.5KITC)=ΔH−TΔS where: factor 55.5 is the molar concentration of water, R is the gas constant (1.986 cal·mol^−1·K^−1), and T is the absolute temperature.

POPC LUVs = experiment: Isothermal titration calorimetry, binding to POPC LUVs; details: ITC, 25 °C, 1.3 mM POPC to 0.05 mM C10-LL-I
Protocol: as §1, §2

[1] = 0.05 or 0.07 mM peptide titrated with 1.3 or 1.8 mM POPG LUVs, one set of sites model (C10-LL-I: two sets of sites, first line)
[2] = one set of sites model (C10-LL-I: two sets of sites, first line)
[3] = ΔG=−RTln(55.5KITC), one set of sites model (C10-LL-I: two sets of sites, first line)
[4] = two sets of sites model, second line

Structure (SMILES)	N (stoichiometry), POPG (POPG LUVs; [1])	TΔS, POPG (POPG LUVs; [2])	ΔH, POPG (POPG LUVs; [2])	ΔG, POPG (POPG LUVs; [3])	N (stoichiometry), POPG (POPG LUVs; 1.8 mM POPG to 0.07 mM C10-LL-I, two sets of sites model, second line)	TΔS, POPG (POPG LUVs; [4])	ΔG, POPG (POPG LUVs; [4])	ΔH, POPG (POPG LUVs; [4])	N (stoichiometry), POPC (POPC LUVs)	TΔS, POPC (POPC LUVs)	ΔG, POPC (POPC LUVs)	ΔH, POPC (POPC LUVs)
CCCCCCCC(=O)N[C@H](C(=O)N[C@@H](CC(N)=O)C(=O)N[C@@H](Cc1c[nH]c2ccccc12)C(=O)N[C@@H](CCCCN)C(=O)N[C@@H](CCCCN)C(=O)N[C@H](C(=O)N[C@@H](CC(C)C)C(=O)NCC(=O)N[C@@H](CCCCN)C(=O)N[C@H](C(=O)N[C@H](C(=O)N[C@@H](CCCCN)C(=O)N[C@H](C(=O)N[C@@H](C)C(=O)N[C@@H](CCCCN)C(N)=O)C(C)C)[C@@H](C)CC)[C@@H](C)CC)C(C)C)C(C)C [C8-LL-I] (Octanoyl-VNWKKVLGKIIKVAK-NH2)	2.05 ± 0.18	-3.10 ± 1.36 kcal/mol	-10.9 ± 1.36 kcal/mol	-7.80 ± 0.09 kcal/mol								
CCCCCCCCCC(=O)N[C@@H](CCCCN)C(=O)N[C@@H](CCCNC(=N)N)C(=O)N[C@@H](Cc1ccccc1)C(=O)N[C@@H](CCCCN)C(=O)N[C@@H](CCCCN)C(=O)N[C@@H](Cc1ccccc1)C(=O)N[C@@H](Cc1ccccc1)C(=O)N[C@@H](CCCCN)C(=O)N[C@@H](CCCCN)C(=O)N[C@@H](CC(C)C)C(=O)N[C@@H](CCCCN)C(N)=O [C10-ATRA-1] (Decanoyl-KRFKKFFKKLK-NH2)	3.16 ± 0.05	12.20 ± 0.83 kcal/mol	0.22 ± 0.01 kcal/mol									
CCCCCCCC(=O)N[C@@H](CCCCN)C(=O)N[C@@H](CCCNC(=N)N)C(=O)N[C@@H](Cc1ccccc1)C(=O)N[C@@H](CCCCN)C(=O)N[C@@H](CCCCN)C(=O)N[C@@H](Cc1ccccc1)C(=O)N[C@@H](Cc1ccccc1)C(=O)N[C@@H](CCCCN)C(=O)N[C@@H](CCCCN)C(=O)N[C@@H](CC(C)C)C(=O)N[C@@H](CCCCN)C(N)=O [C8-ATRA-1] (Octanoyl-KRFKKFFKKLK-NH2)	2.84 ± 0.08	10.5 ± 0.36 kcal/mol	0.27 ± 0.01 kcal/mol	-10.30 ± 0.36 kcal/mol								
CCCCCCCCCC(=O)N[C@H](C(=O)N[C@@H](CC(N)=O)C(=O)N[C@@H](Cc1c[nH]c2ccccc12)C(=O)N[C@@H](CCCCN)C(=O)N[C@@H](CCCCN)C(=O)N[C@H](C(=O)N[C@@H](CC(C)C)C(=O)NCC(=O)N[C@@H](CCCCN)C(=O)N[C@H](C(=O)N[C@H](C(=O)N[C@@H](CCCCN)C(=O)N[C@H](C(=O)N[C@@H](C)C(=O)N[C@@H](CCCCN)C(N)=O)C(C)C)[C@@H](C)CC)[C@@H](C)CC)C(C)C)C(C)C [C10-LL-I] (Decanoyl-VNWKKVLGKIIKVAK-NH2)	1.31 ± 0.58	10.60 ± 1.49 kcal/mol	-0.01 ± 0.03 kcal/mol	-10.60 ± 1.49 kcal/mol	0.13 ± 1.53	5.66 ± 38.3 kcal/mol	-8.77 ± 0.73 kcal/mol	-3.11 ± 38.3 kcal/mol	0.52 ± 0.34	7.24 ± 0.91 kcal/mol	-8.4 ± 0.34 kcal/mol	-1.16 ± 0.85 kcal/mol
CCCCCCCC(=O)N[C@H](C(=O)N[C@@H](CCCCN)C(=O)N[C@@H](CCCCN)C(=O)N[C@H](C(=O)N[C@@H](CC(C)C)C(=O)N[C@@H](CO)C(=O)N[C@@H](CCCCN)C(=O)N[C@H](C(=O)N[C@@H](CCCCN)C(=O)N[C@@H](CCCCN)C(=O)N[C@@H](CC(C)C)C(=O)N[C@@H](CC(C)C)C(=O)N[C@@H](CCCCN)C(N)=O)[C@@H](C)CC)[C@@H](C)CC)[C@@H](C)CC [C8-LK6] (Octanoyl-IKKILSKIKKLLK-NH2)	1.02 ± 0.05	12.00 ± 0.46 kcal/mol	0.97 ± 0.05 kcal/mol	-11.00 ± 0.46 kcal/mol								
